Measured values taken from patent US6680025B2, “Device and method for photoactivation” (Cerus Corporation, priority 1989, dated 2004).
For at least one compound, name, drawing or mass did not settle the structure.

Legend:
[1] = system: DNA; conditions: DNA base pair:isopsoralen ratio 24.3 to 1; AMDMIP 13.1 μg/ml; cited from earlier work
[2] = system: tRNA; assay: Photobinding to RNA (scintillation counting); type: binding; conditions: unirradiated control, 100 μg/ml
[3] = system: Hind-III restriction fragments of lambda DNA; assay: Photobinding of BIODMIP to lambda DNA fragments; type: binding; conditions: 100 μg/ml plus 50 μg additional; two 30 minute irradiations, PTI device, 1×TE
[4] = system: calf thymus DNA; assay: Covalent photobinding to calf thymus DNA (Example 38); type: binding; conditions: irradiated 15 minutes at 25° C., CE-I device; nominal 100 μg/ml
Experimental: FIG. 17 can again be referred to as a flow chart schematically showing the manner in which covalent binding was measured for the compounds synthesized by the methods of the present invention. ^3H-AMIP (3.1×10^5 cpm/μg), ^3H-AMDMIP (2.2×10^5 cpm/μg), and ^3H-MIP (2.1×10^5 cpm/μg) were added to 300 μl of calf thymus DNA (Sigma) in 1×TE buffer. All of the isopsoralen compounds were added at a nominal concentration of 100 μg/ml. However, actual concentrations obtained empirically (counted after sitting overnight at room temperature) were: ^3H-AMIP (105 μg/ml), ^3H-AMDMIP (115 μg/ml), and ^3H-MIP (<10 μg/ml).
To assess binding, three samples were prepared for each compound; two were irradiated (15 minutes at 25° C. with the CE-I device) while one was unirradiated as a control. Following irradiation, the samples were extracted four times with CHCl3 then precipitated twice. The final pellet was brought up in 2 ml of 1×TE buffer and resuspended by shaking at 40° C. overnight. 50 μl of each sample was then diluted to 0.5 mls with H2O. The concentration of DNA was determined by UV absorption (A260) and the amount of covalently bound isopsoralen (“adduct”) was determined by scintillation counting (3×100 μl aliquots). From these numbers, the following binding ratios (adducts: DNA base pair) were determined: […]

Cc1oc2ccc3c(C)cc(=O)oc3c2c1CN [AMDMIP, 4′-Aminomethyl-4,5′-dimethylisopsoralen]
photobinding level [1]: 1 photobound AMDMIP per 151 DNA base pairs | Adducts:RNA Bases [2]: 1:15000

NCc1cc2occc2c2oc(=O)ccc12 [AMIP, 5-Aminomethylisopsoralen]
Adducts:RNA Bases [2]: 1:51000

Cc1oc2ccc3c(C)cc(=O)oc3c2c1CN(C)CCCCCCN(C)C(=O)CCCCCNC(=O)CCCCC1SCC2NC(=O)NC21 (centres unmarked) [BIODMIP, 4′-N-[N,N′-dimethyl-N′-(6-(biotinamido)-hexanoate)-1,6-hexanediamine]-methyl-4,5′-dimethylisopsoralen]
covalent addition to DNA [3]: 1 covalently bound BIODMIP per 20 base pairs

Cc1cc2occc2c2oc(=O)ccc12 [MIP, 5-Methylisopsoralen]
binding ratio (adducts: DNA base pair) [4]: 1:44.2
